Test [1] concerns the target T1, NRT1.2 N-terminal (NRT1.2N, 1-231 aa), MbSUS fusion (Arabidopsis thaliana) (UniProt Q8H157).
T1 sequence: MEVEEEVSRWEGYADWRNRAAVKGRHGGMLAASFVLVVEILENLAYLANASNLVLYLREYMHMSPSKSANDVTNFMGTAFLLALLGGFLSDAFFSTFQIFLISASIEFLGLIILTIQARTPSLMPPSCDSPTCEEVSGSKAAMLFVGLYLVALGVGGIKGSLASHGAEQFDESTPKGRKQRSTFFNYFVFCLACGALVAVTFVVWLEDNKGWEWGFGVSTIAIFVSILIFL
In words: two-hybrid.

The target in test [2] is T2, NRT1.2 cytosol loop region (NRT1.2^loop, 232-346 aa), MbSUS fusion (Arabidopsis thaliana) (UniProt Q8H157).
T2 sequence: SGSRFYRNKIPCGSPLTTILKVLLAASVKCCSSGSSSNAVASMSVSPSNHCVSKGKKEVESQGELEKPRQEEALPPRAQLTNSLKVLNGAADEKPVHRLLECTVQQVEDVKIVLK
Description: two-hybrid.

Substrate in the test “two-hybrid”: T3, C terminus of NRT1.2 (NRT1.2C, 347-585 aa), MbSUS fusion (Arabidopsis thaliana) (UniProt Q8H157)
T3 sequence: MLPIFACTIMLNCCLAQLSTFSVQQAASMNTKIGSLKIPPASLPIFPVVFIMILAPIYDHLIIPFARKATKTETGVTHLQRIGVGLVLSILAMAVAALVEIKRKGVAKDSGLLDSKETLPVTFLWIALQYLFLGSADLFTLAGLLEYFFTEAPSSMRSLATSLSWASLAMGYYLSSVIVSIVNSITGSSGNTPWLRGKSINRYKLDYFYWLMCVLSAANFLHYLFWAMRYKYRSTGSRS
In words: two-hybrid.

Test [3] concerns the target T4, CEPR2-nLUC (Arabidopsis thaliana) (UniProt Q9C7T7).
T4 sequence: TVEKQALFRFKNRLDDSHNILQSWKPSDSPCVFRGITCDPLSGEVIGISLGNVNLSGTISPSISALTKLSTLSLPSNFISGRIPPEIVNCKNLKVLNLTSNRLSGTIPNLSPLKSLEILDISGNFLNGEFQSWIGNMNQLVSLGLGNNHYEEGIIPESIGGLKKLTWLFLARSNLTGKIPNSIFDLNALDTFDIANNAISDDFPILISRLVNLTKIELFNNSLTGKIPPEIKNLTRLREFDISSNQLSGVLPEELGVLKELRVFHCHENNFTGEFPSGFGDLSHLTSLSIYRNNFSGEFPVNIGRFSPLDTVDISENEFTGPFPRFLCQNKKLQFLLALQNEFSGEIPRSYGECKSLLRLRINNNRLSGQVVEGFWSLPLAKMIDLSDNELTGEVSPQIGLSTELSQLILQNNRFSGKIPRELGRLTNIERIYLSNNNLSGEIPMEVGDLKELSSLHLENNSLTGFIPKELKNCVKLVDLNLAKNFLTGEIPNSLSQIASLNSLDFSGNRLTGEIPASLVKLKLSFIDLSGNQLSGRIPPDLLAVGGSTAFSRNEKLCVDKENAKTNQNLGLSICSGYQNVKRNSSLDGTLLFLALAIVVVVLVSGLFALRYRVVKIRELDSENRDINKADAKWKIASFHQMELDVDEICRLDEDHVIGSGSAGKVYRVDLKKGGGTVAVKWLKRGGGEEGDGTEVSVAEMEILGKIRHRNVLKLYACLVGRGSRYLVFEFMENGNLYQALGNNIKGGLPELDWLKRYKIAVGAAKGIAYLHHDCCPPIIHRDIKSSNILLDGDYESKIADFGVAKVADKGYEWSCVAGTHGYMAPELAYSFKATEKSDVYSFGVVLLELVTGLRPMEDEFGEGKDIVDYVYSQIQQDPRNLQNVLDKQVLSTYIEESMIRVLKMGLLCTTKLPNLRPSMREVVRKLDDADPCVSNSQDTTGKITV
Description: split reporter.

These are yes or no findings as the source states them, for the method shown. For some of these results: In cells and extracts the contact can be indirect. Some binding calls cover weakened binding; strength is not graded here. Where a sequence is shown, tags or fusion partners need not be part of it.

B1: UBC33, MbSUS fusion (enzyme, UniProt Q9FK29 1-243)
chain: MAEKACIKRLQKEYRALCKEPVSHVVARPSPNDILEWHYVLEGSEGTPFAGGFYYGKIKFPPEYPYKPPGITMTTPNGRFVTQKKICLSMSDFHPESWNPMWSVSSILTGLLSFMMDNSPTTGSVNTSVAEKQRLAKSSLAFNCKSVTFRKLFPEYVEKYSQQQVAEEEAATQQTTTSENQDFPQKDNAKVESEKSVGLKKESIQEVGLKERRRNKKEALPGWIVLLLVSIVGVVMALPLLQL
On to B1, for which the binding entry (in test [1]; in test [2]; in “two-hybrid”) was “binds” in each case.

B2: UBC32, MbSUS fusion (enzyme, UniProt Q9LSP7 1-309)
chain: MADERYNRKNPAVKRILQEVKEMQANPSDDFMSLPLEENIFEWQFAIRGPGDTEFEGGIYHGRIQLPADYPFKPPSFMLLTPNGRFETNTKICLSISNYHPEHWQPSWSVRTALVALIAFMPTSPNGALGSVDYPKDERRTLAIKSRETPPKYGSPERQKIIDEIHQYILSKATVVPKPLPLECSQAPSIVSEAHSQVEPQEAITVVEERSIATTDTIVDDQIIEETAEAVNTAASVVPAAAPLPAVEVVVKASVSGEQRMARRAAQKPVDDRLFTWAAVGLTIAIMVLLLKKFIKSNGYSTGFMDDQS
As to B2, the binding result (in test [1]; in test [2]; in “two-hybrid”) was “binds” in each case.

B3: NRT1.2-cLUC (protein, UniProt Q8H157 1-585)
chain: MEVEEEVSRWEGYADWRNRAAVKGRHGGMLAASFVLVVEILENLAYLANASNLVLYLREYMHMSPSKSANDVTNFMGTAFLLALLGGFLSDAFFSTFQIFLISASIEFLGLIILTIQARTPSLMPPSCDSPTCEEVSGSKAAMLFVGLYLVALGVGGIKGSLASHGAEQFDESTPKGRKQRSTFFNYFVFCLACGALVAVTFVVWLEDNKGWEWGFGVSTIAIFVSILIFLSGSRFYRNKIPCGSPLTTILKVLLAASVKCCSSGSSSNAVASMSVSPSNHCVSKGKKEVESQGELEKPRQEEALPPRAQLTNSLKVLNGAADEKPVHRLLECTVQQVEDVKIVLKMLPIFACTIMLNCCLAQLSTFSVQQAASMNTKIGSLKIPPASLPIFPVVFIMILAPIYDHLIIPFARKATKTETGVTHLQRIGVGLVLSILAMAVAALVEIKRKGVAKDSGLLDSKETLPVTFLWIALQYLFLGSADLFTLAGLLEYFFTEAPSSMRSLATSLSWASLAMGYYLSSVIVSIVNSITGSSGNTPWLRGKSINRYKLDYFYWLMCVLSAANFLHYLFWAMRYKYRSTGSRS
In the case of B3, the binding entry in test [3] is “binds”.

The record behind these values is publication doi:10.1101/2020.02.18.953711 (bioRxiv, 2020).
